Results reported in PMC11414077, “Novel thiazole-based cyanoacrylamide derivatives: DNA cleavage, DNA/BSA binding properties and their anticancer behaviour against colon and breast cancer cells” (BMC Chemistry, 2024).

Tests used:
CT-DNA = CT-DNA UV-Visible absorption spectrophotometric titration; format: binding, calf; conditions: on adding CT-DNA 0–60 μM
Experimental: CT-DNA stock solution was prepared by dissolving CT-DNA in Tris/NaCl buffer (pH 7.1). Then, it was stored at 4°C and was manipulated within 4 days of preparation. The concentration was estimated by applying the equation C=A260nm/ε×b where C is the concentration of DNA solution, A is the absorbance at wavelength 260 nm, b is the path length and ε is the molar extinction coefficient of DNA that equals 6600 M^−1 cm^−1. The purity also was calculated using the absorbance ratio at wavelength 260 and 280 respectively, which was 1.8 indicating free DNA from protein contamination. Stock solutions of compounds 3b and 3c were prepared by dissolving in DMSO.
The interaction between the selected compounds (3b and 3c) and CT-DNA was assessed through the spectrophotometric titration method. In brief, a fixed concentration of compounds (25 μM) was mixed with an accumulative addition of CT-DNA (0–60 μM) at room temperature with a constant DMSO percentage of 5%. After 5 min from each addition, the UV–Vis absorption spectrum (250–650 nm) was recorded. The hyper/hypochromic percentage change at the characteristic peak of 3b and 3c was assessed using the formula: H%=Afree-Abound/Abound×100 . […] Standard Gibbs free energy (ΔG°) was calculated using the equation ΔG° = − RTlnKb (where T is the temperature, 298 K; R is the universal gas constant, 8.314 J K^−1 mol^−1).

CT-DNA-EtBr = test: Ethidium bromide quenching (displacement) assay; format: binding, calf; conditions: Scatchard method
Experimental: EtBr is a conventional intercalator whose fluorescence intensity intensifies in response to CT-DNA interaction. Solution of CT-DNA-EtBr with final concentrations of EtBr (20 µM) and CT-DNA (100 µM) in Tris–HCl buffer solution (pH = 7.1) was prepared, then compounds were solubilized in DMSO, added to the prepared solution to attain a range of concentration (0–160 µM) and (0–80 µM) for 3b and 3c, respectively. Then, the mixtures were incubated 3 min after each addition and the emission spectra (540–710 nm) were recorded using an excitation wavelength of 520 nm.
The interaction mode between compound and CT-DNA can be discriminated through fluorescence spectroscopy with the EtBr–CT-DNA system. EtBr is a classic indicator of intercalation where an intense fluorescence signal is emitted from the EtBr-CT-DNA system through intercalation of EtBr between adjacent DNA base pairs with no obvious signal for unaccompanied EtBr. […] F0/F= 1+KsvQ= 1+kqτ0[Q] where F0 and F are fluorescence intensities in the absence and presence of the compound used for quenching, respectively; KSV is a linear Stern–Volmer quenching constant; [Q] is the concentration of the quenching compound and τ0 is the fluorescence lifetime of the fluorophore (10^−8 s) in absence of the compound responsible for quenching. […] Also, the binding constant (Kb) and the number of binding sites (n) were determined by the Scatchard method. […]

Compound | blue shift (CT-DNA) | n (binding site numbers) (CT-DNA-EtBr)
N#CC(=Cc1cn(-c2ccccc2)nc1-c1cccs1)C(=O)Nc1nccs1 [Compound 3b, 2-Cyano-3-(1-phenyl-3-(thiophen-2-yl)-1H-pyrazol-4-yl)-N-(thiazol-2-yl)acrylamide] | ~ 1 nm | 0.99
N#CC(=Cc1cn(-c2ccccc2)nc1-c1cccnc1)C(=O)Nc1nccs1 [Compound 3c, 2-Cyano-3-(1-phenyl-3-(pyridin-3-yl)-1H-pyrazol-4-yl)-N-(thiazol-2-yl)acrylamide] | ~ 1 nm | 0.90
